No constants are given. Whether binding was seen depends on the method and setting. Some entries that bind do so weakly or less than the wild type.

Data on five molecules can be found in article doi:10.1101/757856.

Assay [1] addresses Neurofibromin DEF fragment (1541-2818, purified) (human) (UniProt P21359). In words: SEC.
In assay [2] the target is T1, Neurofibromin EF fragment (1821-2818, purified) (human) (UniProt P21359).
T1 sequence: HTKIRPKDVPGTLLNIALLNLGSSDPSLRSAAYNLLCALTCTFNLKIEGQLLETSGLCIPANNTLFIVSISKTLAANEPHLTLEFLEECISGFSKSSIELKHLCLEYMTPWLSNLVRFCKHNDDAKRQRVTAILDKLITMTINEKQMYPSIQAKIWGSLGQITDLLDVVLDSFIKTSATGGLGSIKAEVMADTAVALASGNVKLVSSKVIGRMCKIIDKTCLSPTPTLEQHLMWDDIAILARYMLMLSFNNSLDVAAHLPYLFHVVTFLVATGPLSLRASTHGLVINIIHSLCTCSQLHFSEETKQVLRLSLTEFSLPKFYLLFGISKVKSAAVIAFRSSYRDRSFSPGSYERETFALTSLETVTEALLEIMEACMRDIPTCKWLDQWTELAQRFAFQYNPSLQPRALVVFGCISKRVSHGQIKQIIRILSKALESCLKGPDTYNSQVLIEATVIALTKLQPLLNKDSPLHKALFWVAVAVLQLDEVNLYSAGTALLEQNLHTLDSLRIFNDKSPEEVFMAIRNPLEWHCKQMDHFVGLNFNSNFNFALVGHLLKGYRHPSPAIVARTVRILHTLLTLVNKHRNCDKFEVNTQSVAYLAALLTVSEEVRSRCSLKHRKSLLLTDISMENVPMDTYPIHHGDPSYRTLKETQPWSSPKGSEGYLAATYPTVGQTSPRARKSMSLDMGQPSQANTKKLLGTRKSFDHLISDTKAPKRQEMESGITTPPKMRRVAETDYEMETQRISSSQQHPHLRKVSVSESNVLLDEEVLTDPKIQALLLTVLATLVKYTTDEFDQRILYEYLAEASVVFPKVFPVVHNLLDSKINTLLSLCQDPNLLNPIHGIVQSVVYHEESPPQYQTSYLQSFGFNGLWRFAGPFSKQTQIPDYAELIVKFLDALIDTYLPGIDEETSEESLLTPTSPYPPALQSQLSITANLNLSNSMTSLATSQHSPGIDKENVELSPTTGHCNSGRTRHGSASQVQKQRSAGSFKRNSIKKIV
In words: SEC. For orientation: In gel filtration, larger molecules generally elute earlier.

The target of assay [3] is T1, Neurofibromin EF fragment (1821-2818, purified) (human). The experiment in a line: SEC-MALS.

B1: Neurofibromin GAP-related domain protein 1198-1530 (domain or fragment, UniProt P21359-2 1198-1530)
chain: ETVLADRFERLVELVTMMGDQGELPIAMALANVVPCSQWDELARVLVTLFDSRHLLYQLLWNMFSKEVELADSMQTLFRGNSLASKIMTFCFKVYGATYLQKLLDPLLRIVITSSDWQHVSFEVDPTRLEPSESLEENQRNLLQMTEKFFHAIISSSSEFPPQLRSVCHCLYQVVSQRFPQNSIGAVGSAMFLRFINPAIVSPYEAGILDKKPPPRIERGLKLMSKILQSIANHVLFTKEEHMRPFNDFVKSNFDAARRFFLDIASDCPTSDAVNHSLSFISDGNVLALHRLLWNNQEKIGQYLSSNRDHKAVGRRPFDKMATLLAYLGPPEH
With B1, the binding result in assay [1] and in assay [2] was “no binding” each time.

B2: Neurofibromin EF fragment (1821-2818, purified) (domain or fragment, UniProt P21359-2 1821-2818)
chain: HTKIRPKDVPGTLLNIALLNLGSSDPSLRSAAYNLLCALTCTFNLKIEGQLLETSGLCIPANNTLFIVSISKTLAANEPHLTLEFLEECISGFSKSSIELKHLCLEYMTPWLSNLVRFCKHNDDAKRQRVTAILDKLITMTINEKQMYPSIQAKIWGSLGQITDLLDVVLDSFIKTSATGGLGSIKAEVMADTAVALASGNVKLVSSKVIGRMCKIIDKTCLSPTPTLEQHLMWDDIAILARYMLMLSFNNSLDVAAHLPYLFHVVTFLVATGPLSLRASTHGLVINIIHSLCTCSQLHFSEETKQVLRLSLTEFSLPKFYLLFGISKVKSAAVIAFRSSYRDRSFSPGSYERETFALTSLETVTEALLEIMEACMRDIPTCKWLDQWTELAQRFAFQYNPSLQPRALVVFGCISKRVSHGQIKQIIRILSKALESCLKGPDTYNSQVLIEATVIALTKLQPLLNKDSPLHKALFWVAVAVLQLDEVNLYSAGTALLEQNLHTLDSLRIFNDKSPEEVFMAIRNPLEWHCKQMDHFVGLNFNSNFNFALVGHLLKGYRHPSPAIVARTVRILHTLLTLVNKHRNCDKFEVNTQSVAYLAALLTVSEEVRSRCSLKHRKSLLLTDISMENVPMDTYPIHHGDPSYRTLKETQPWSSPKGSEGYLAATYPTVGQTSPRARKSMSLDMGQPSQANTKKLLGTRKSFDHLISDTKAPKRQEMESGITTPPKMRRVAETDYEMETQRISSSQQHPHLRKVSVSESNVLLDEEVLTDPKIQALLLTVLATLVKYTTDEFDQRILYEYLAEASVVFPKVFPVVHNLLDSKINTLLSLCQDPNLLNPIHGIVQSVVYHEESPPQYQTSYLQSFGFNGLWRFAGPFSKQTQIPDYAELIVKFLDALIDTYLPGIDEETSEESLLTPTSPYPPALQSQLSITANLNLSNSMTSLATSQHSPGIDKENVELSPTTGHCNSGRTRHGSASQVQKQRSAGSFKRNSIKKIV
On to B2, for which, in assay [3], the binding result is on record as “binds weakly”.

B3: Neurofibromin GAP-related domain protein 1203-1530 (domain or fragment, UniProt P21359-2 1203-1530)
chain: DRFERLVELVTMMGDQGELPIAMALANVVPCSQWDELARVLVTLFDSRHLLYQLLWNMFSKEVELADSMQTLFRGNSLASKIMTFCFKVYGATYLQKLLDPLLRIVITSSDWQHVSFEVDPTRLEPSESLEENQRNLLQMTEKFFHAIISSSSEFPPQLRSVCHCLYQVVSQRFPQNSIGAVGSAMFLRFINPAIVSPYEAGILDKKPPPRIERGLKLMSKILQSIANHVLFTKEEHMRPFNDFVKSNFDAARRFFLDIASDCPTSDAVNHSLSFISDGNVLALHRLLWNNQEKIGQYLSSNRDHKAVGRRPFDKMATLLAYLGPPEH
Consider B3, for which, in assay [2], the binding result is “no binding”.

B4: Neurofibromin D domain (1541-1820) (domain or fragment, UniProt P21359-2 1541-1820)
chain: LNLTSSKFEEFMTRHQVHEKEEFKALKTLSIFYQAGTSKAGNPIFYYVARRFKTGQINGDLLIYHVLLTLKPYYAKPYEIVVDLTHTGPSNRFKTDFLSKWFVVFPGFAYDNVSAVYIYNCNSWVREYTKYHERLLTGLKGSKRLVFIDCPGKLAEHIEHEQQKLPAATLALEEDLKVFHNALKLAHKDTKVSIKVGSTAVQVTSAERTKVLGQSVFLNDIYYASEIEEICLVDENQFTLTIANQGTPLTFMHQECEAIVQSIIHIRTRWELSQPDSIPQ
Consider B4, for which the binding result in assay [2] is “no binding”.

B5: Neurofibromin GAP-related domain protein 1172-1530 (domain or fragment, UniProt P21359-2 1172-1530)
chain: DLQTRATFMEVLTKILQQGTEFDTLAETVLADRFERLVELVTMMGDQGELPIAMALANVVPCSQWDELARVLVTLFDSRHLLYQLLWNMFSKEVELADSMQTLFRGNSLASKIMTFCFKVYGATYLQKLLDPLLRIVITSSDWQHVSFEVDPTRLEPSESLEENQRNLLQMTEKFFHAIISSSSEFPPQLRSVCHCLYQVVSQRFPQNSIGAVGSAMFLRFINPAIVSPYEAGILDKKPPPRIERGLKLMSKILQSIANHVLFTKEEHMRPFNDFVKSNFDAARRFFLDIASDCPTSDAVNHSLSFISDGNVLALHRLLWNNQEKIGQYLSSNRDHKAVGRRPFDKMATLLAYLGPPEH
For B5, the binding result in assay [2] is “no binding”.
